# Data as given in PubChem BioAssay AID1259254 (NCATS, 2017)
# Aim: 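Finding genes that stop cells copying their DNA twice in one cycle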 (primary screen)
# System: human HCT116 colorectal cancer cells
# Reagents: single siRNA against human genes
# Timing: 3 days
# Measured: 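Nuclei stained with Hoechst and imaged; cell-cycle phase assigned by DNA content; G2 share scaled per plate, non-targeting siRNA 0%, GMNN siRNA 100%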
# Scale: G2 robust z-score and G2 cells, % of GMNN control: higher = more G2 cells, more excess DNA replication; raw share of cells in G2: higher = larger share of cells with G2 DNA content
# Rule for the call: 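Active siRNAs have a G2 robust z of 5 or more median absolute deviations over the median, which in these data means about 38% or higher of GMNN control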
# This is one part, drawn at random, of about 59,000 reagents. About 1,550 of all reagents (2.6%) count as active. 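G2 share is only a proxy for re-replication; each gene was hit by three separate siRNAs, and active genes were retested.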 Raw values vary from plate to plate and are shown uncorrected. Reagents against one gene are numbered here. Not stated in the record: the amount of reagent.
gene,siRNA no.,G2 robust z-score,"G2 cells, % of GMNN control",raw share of cells in G2 (%),Call
SLC35G3,1,0.0127,3.06,4.13,inactive
SLC35G3,2,-0.462,-0.286,3.73,inactive
SLC35G3,3,1.44,13.1,6.95,inactive
CALN1,1,0.502,6.5,5.09,inactive
CALN1,2,-1.58,-8.12,2.24,inactive
CALN1,3,5.8,43.8,17.4,active
SRCAP,1,0.412,5.87,8.79,inactive
SRCAP,2,-0.326,0.672,5.99,inactive
SRCAP,3,-0.169,1.78,4.42,inactive
FBP2,1,-0.67,-1.75,4.23,inactive
FBP2,2,1.61,14.3,8.6,inactive
FBP2,3,-0.843,-2.96,2.61,inactive
SPMIP9,1,-0.159,1.85,3.35,inactive
SPMIP9,2,0.168,4.15,5.09,inactive
SPMIP9,3,3.52,27.7,12.2,inactive
TTC22,1,-0.106,2.22,5.38,inactive
TTC22,2,-0.615,-1.36,3.58,inactive
TTC22,3,1.77,15.4,8.06,inactive
NOCT,1,0.334,5.32,5.95,inactive
NOCT,2,1.09,10.6,7.47,inactive
NOCT,3,1.31,12.2,11.7,inactive
TMTC3,1,0.546,6.81,7.56,inactive
TMTC3,2,-1,-4.08,3.21,inactive
TMTC3,3,-0.713,-2.05,4.98,inactive
ARID4B,1,-0.633,-1.48,2.27,inactive
ARID4B,2,-0.637,-1.51,5.23,inactive
ARID4B,3,4.89,37.4,15.4,inactive
ZNF709,1,0.602,7.2,5.57,inactive
ZNF709,2,0.0849,3.56,4.4,inactive
ZNF709,3,-1.07,-4.53,1.94,inactive

14 of these entries, set out differently.
| gene | siRNA no. | G2 robust z-score | G2 cells, % of GMNN control | raw share of cells in G2 (%) | Call |
| --- | --- | --- | --- | --- | --- |
| SPMIP9 | 2 | 0.168 | 4.15 | 5.09 | inactive |
| SPMIP9 | 3 | 3.52 | 27.7 | 12.2 | inactive |
| TTC22 | 1 | -0.106 | 2.22 | 5.38 | inactive |
| TTC22 | 2 | -0.615 | -1.36 | 3.58 | inactive |
| TTC22 | 3 | 1.77 | 15.4 | 8.06 | inactive |
| NOCT | 1 | 0.334 | 5.32 | 5.95 | inactive |
| NOCT | 2 | 1.09 | 10.6 | 7.47 | inactive |
| NOCT | 3 | 1.31 | 12.2 | 11.7 | inactive |
| TMTC3 | 1 | 0.546 | 6.81 | 7.56 | inactive |
| TMTC3 | 2 | -1 | -4.08 | 3.21 | inactive |
| TMTC3 | 3 | -0.713 | -2.05 | 4.98 | inactive |
| ARID4B | 1 | -0.633 | -1.48 | 2.27 | inactive |
| ARID4B | 2 | -0.637 | -1.51 | 5.23 | inactive |
| ARID4B | 3 | 4.89 | 37.4 | 15.4 | inactive |

The listing continues:
gene,siRNA no.,G2 robust z-score,"G2 cells, % of GMNN control",raw share of cells in G2 (%),Call
EIF3C,1,-0.539,-0.827,4.16,inactive
EIF3C,2,4.3,33.2,16.9,inactive
EIF3C,3,6.5,48.7,22.2,active
C1orf54,1,0.938,9.57,8.75,inactive
C1orf54,2,0.347,5.41,7.03,inactive
C1orf54,3,2.06,17.5,7.31,inactive
EIF3K,1,1.8,15.6,9.82,inactive
EIF3K,2,-0.347,0.523,4.75,inactive
EIF3K,3,-1.13,-4.98,1.68,inactive
RABEPK,1,-0.651,-1.61,4.6,inactive
RABEPK,2,0.451,6.14,6.51,inactive
RABEPK,3,0.102,3.68,4.75,inactive
EEF1B2P6,1,-0.205,1.52,4.21,inactive
EEF1B2P6,2,0.759,8.31,6.57,inactive
EEF1B2P6,3,0.818,8.72,6.08,inactive
GPR27,1,-0.151,1.9,3.85,inactive
GPR27,2,-0.745,-2.28,3.72,inactive
GPR27,3,-1.11,-4.82,4.12,inactive
VGF,1,-0.905,-3.4,3.62,inactive
VGF,2,-0.743,-2.26,3,inactive
VGF,3,3.1,24.8,12.1,inactive
RALGPS2,1,4.74,36.3,19.5,inactive
RALGPS2,2,4.77,36.5,22.4,inactive
RALGPS2,3,2.1,17.8,10.8,inactive
TPRG1L,1,1.32,12.2,8.79,inactive
TPRG1L,2,-0.362,0.419,3.24,inactive
TPRG1L,3,-0.634,-1.5,2.04,inactive
TP53I3,1,1.15,11.1,9.25,inactive
TP53I3,2,-0.481,-0.417,5.05,inactive
TP53I3,3,-0.918,-3.49,2.01,inactive
ERG28,1,-0.859,-3.08,3.78,inactive
ERG28,2,-0.109,2.2,5.04,inactive
ERG28,3,3.8,29.7,14.3,inactive
ZNF136,1,-1.06,-4.47,4,inactive
ZNF136,2,0.244,4.69,5.3,inactive
ZNF136,3,-1.13,-4.97,1.88,inactive
FAM124A,1,2.05,17.4,9.87,inactive
FAM124A,2,-0.663,-1.7,2.55,inactive
FAM124A,3,-0.082,2.39,3.96,inactive
TCHHL1,1,-0.0151,2.86,5.25,inactive
TCHHL1,2,-0.596,-1.22,2.71,inactive
TCHHL1,3,1.09,10.7,6.44,inactive
GIPC1,1,-1.08,-4.66,2.33,inactive
GIPC1,2,-0.899,-3.36,4.24,inactive
GIPC1,3,2.56,21,14.8,inactive
MYO5B,1,0.689,7.81,5.77,inactive
MYO5B,2,-0.763,-2.4,4.43,inactive
MYO5B,3,-0.145,1.95,6.24,inactive
RPS6KA4,1,1.37,12.6,9.51,inactive
RPS6KA4,2,-0.781,-2.53,4.27,inactive
RPS6KA4,3,4.26,32.9,14.2,inactive
GPRIN3,1,-0.0565,2.57,4.58,inactive
GPRIN3,2,1.2,11.4,7.46,inactive
GPRIN3,3,-0.531,-0.77,3.03,inactive
CCN2,1,0.0242,3.14,5.18,inactive
CCN2,2,0.663,7.64,7.69,inactive
CCN2,3,0.0116,3.05,6.11,inactive
